Experimental data: patent US20090082389A1, “PESTICIDAL SUBSTITUTED PIPERIDINES” (priority 2005, published 2009)
Some of these results come from one statement about several compounds together.

The compounds below were run on Rhipicephalus sanguineus (assay: Screening method to test contact activity against Rhipicephalus sanguineus (brown dog tick), larvae (L1) on treated filter paper). Details: test concentration of 1000 ppm, assessed 24 hours after application in comparison with the untreated control.
Type: in vivo

| SMILES | contact control of Rhipicephalus sanguineus |
| --- | --- |
| OC1CCN(Cc2ccc(Cl)cc2)CC1 [Compound 14-11] | at least 80% |
| FC(F)(F)c1ccc(N2CCC3(CC2)OCCO3)c(Cl)c1 [Compound 24-56] | at least 80% |
| CC(=O)OC1CCN(Cc2ccccc2)CC1 [Compound 15-01] | at least 80% |
| Cc1cc(C)cc(CN2CCc3ccccc3C2)c1 [Compound 21-123] | at least 80% |
| Clc1ccc(CN2CCCCC2)cc1 [Compound 13-11] | at least 80% |
| O=C1CCN(c2ccc(C(F)(F)F)cn2)CC1 [Compound 6-20] | at least 80% |
| O=C1CCN(CC2CCCCC2)CC1 [Compound 9-19] | at least 80% |
| CCOC(=O)C1CCN(Cc2ccc(Cl)cc2Cl)CC1 [Compound 17-108] | at least 80% |
| CCCCCCCN1CCC(=O)CC1 [Compound 9-04] | at least 80% |
| Clc1ccc(CN2CCc3ccccc3C2)c(Cl)c1 [Compound 21-111] | at least 80% |
| CCOC(=O)C1CCN(Cc2ccc(C(F)(F)F)cc2)CC1 [Compound 17-79] | at least 80% |
| c1ccc(CN2CCC3CCCCC3C2)cc1 (stereo not drawn) [Compound 19-01, 2-Benzyl-1,2,3,4-decahydro-isoquinoline] | at least 80% |
| CCC(=O)OC1CCN(Cc2ccc(Cl)cc2)CC1 [Compound 16-11] | at least 80% |
| CON=C1CCN(Cc2ccccc2)CC1 [Compound 10-44] | at least 80% |
| O=C1CCN(Cc2ccc(Cl)nc2)CC1 [Compound 4-34] | at least 80% |
| CCOC(=O)C1CCN(Cc2ccccc2)CC1 [Compound 17-58] | at least 80% |
| Clc1ccc(CN2CCC3CCCCC3C2)c(Cl)c1 (stereo not drawn) [Compound 19-111] | at least 80% |
| FC(F)(F)c1ccc(CN2CCC3CCCCC3C2)cc1 (stereo not drawn) [Compound 19-82] | at least 80% |
| c1ccc(CC2CCN(Cc3ccccc3)CC2)cc1 [Compound 18-01] | at least 80% |
| c1ccc(CN2CCc3ccccc3C2)cc1 [Compound 21-01] | at least 80% |
| CCC(=O)OC1CCN(Cc2ccccc2)CC1 [Compound 16-01] | at least 80% |
| O=C1CCN(CCCc2ccccc2)CC1 [Compound 3-01] | at least 80% |

The compounds below were run on Ctenocephalides felis (assay: Screening method to test contact activity against Ctenocephalides felis (cat flea), adults on treated filter paper). Details: test concentration of 1000 ppm, assessed 24 hours and 48 hours after application in comparison with the untreated control.
Type: in vivo

| SMILES | contact control of Ctenocephalides felis |
| --- | --- |
| O=C1CCN(CC2CCCCC2)CC1 [Compound 9-19] | at least 70% |
| CCCCCCCN1CCC(=O)CC1 [Compound 9-04] | at least 70% |
